Laboratory results reported in patent publication US12235278B2, “Compositions and methods for evaluation of antiplatelet drug sensitivity” (Beth Israel Deaconess Medical Center, Inc., priority 2018, dated 2025).
For at least one compound, name, drawing or mass did not settle the structure.

What was measured:
[1] = test system: Drp1-Ser616 phosphorylation; assay: Western blot of Drp1 Ser616 phosphorylation in platelets; assay type: cell-based
[2] = test system: Drp1-Ser637 phosphorylation; assay: Western blot of Drp1 Ser637 phosphorylation in platelets; assay type: cell-based

## C=C[C@@]1(C)CC(=O)[C@]2(O)[C@@]3(C)[C@@H](O)CCC(C)(C)[C@@H]3[C@H](O)[C@H](OC(C)=O)[C@@]2(C)O1 [forskolin]
[1]; platelets incubated with the agent
  Drp1 phosphorylation at Ser616 elicited by the agent: failed to activate
[2]
  Drp1 phosphorylation at Ser637 elicited by the agent: resulted in Drp1-5637 phosphorylation

## COC[C@H]1OC(=O)c2coc3c2[C@@]1(C)C1=C(C3=O)[C@@H]2CCC(=O)[C@@]2(C)C[C@H]1OC(C)=O [Wortmannin, wortmannin]
[1]; platelets
  Effect on SFLLRN-induced (PAR1-mediated) Drp1-Ser616 phosphorylation: does not affect
